Measured values: PubChem BioAssay AID2685 (National Center for Advancing Translational Sciences (NCATS), 2010)
This is one part of the list. Shown are side measurements of this screen, not its main read-out; they come without a call. The list favours compounds with an active or inconclusive main result. Potencies come from curve fits of mixed quality, noted in brackets.

Experiment: qHTS Assay for Lipid Storage Modulators in Drosophila S3 Cells;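 for cell number change: cells counted by Cell Tracker Red CMTPX staining in the red channel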
Settings: BODIPY lipid droplet fluorescence, 18-24 h; for cell number change: measured here: cell count max response, cells fed with added oleic acid
How it was run: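 Laser-scanning cytometry quantifies lipid droplet accumulation (500–530 nm total intensity; droplet/cell object ratio) in oleic acid-fed (400 uM added) Drosophila S3 cells treated with a concentration series. 20 uM Triacsin C defined 100% inhibition.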

[1] = measured here: lipid fluorescence (Fed channel) AC50, cells fed with added oleic acid
[2] = measured here: cell number channel AC50, cells fed with added oleic acid

| Structure (SMILES) | cell number change [%] | AC50 [1] | AC50 [2] |
| --- | --- | --- | --- |
| C=CCNC(=O)C1CCN(S(=O)(=O)c2ccc3ccccc3c2)CC1 | -9.12 | 29.1 µM [rising, single point] |  |
| O=C1CCNCCN1[C@H](CO)c1ccccc1 | 6.8 | 4.11 µM [rising, full curve, poor fit] |  |
| CCc1noc(C)c1C(=O)N(CC(C)C)c1c(N)n(Cc2ccccc2)c(=O)[nH]c1=O | -2.46 | 20.6 µM [rising, single point] |  |
| CSCCNC(=O)c1ccc(C(C)(C)C)cc1 | 0.453 | 0.58 µM [falling, partial curve] |  |
| Clc1ccc(N2CCN(/N=C/c3cccnc3)CC2)cc1 | 1.56 | 5.8 µM [rising, full curve, poor fit] |  |
| CC(C)(C)Cc1nnc(NC(=O)c2ccc3c(c2)OCO3)s1 |  |  | 4.11 µM [rising, partial curve, poor fit] |
| CCCCCOc1ccc(C(C)(O)C(CN2CCOCC2)c2ccccc2)cc1 (stereo not given) | -19.9 | 29.1 µM [falling, single point] |  |
| Cc1ccc(/C([O-])=C(/C(=S)NCc2ccco2)[n+]2ccccc2)cc1 | 34.7 |  | 16.4 µM [rising, single point] |
| Clc1cccc(Nc2nc(N3CCOCC3)nc(N3CCOCC3)n2)c1 | 0.612 | 3.66 µM [rising, full curve] |  |
| O=C(Nc1ccc(Cl)cn1)c1ccc2ccccc2n1 | -23.5 |  |  |
| CCOC(=O)c1c(-c2ccc(Cl)cc2)c(C#N)c(=O)n(N)c1N |  |  | 0.082 µM [rising, full curve, poor fit] |
| COc1cc(C(=O)NC(C)c2ccc3ccccc3c2)cc(Cl)c1O (stereo not given) | 13.5 | 29.1 µM [rising, partial curve, poor fit] |  |
| O=C(NC(=S)N1CCN(Cc2ccccc2)CC1)c1cccnc1 | 2 |  |  |
| COc1ccccc1/C=N/NC(=O)c1csc(C)c1C | 43 | 7.31 µM [rising, partial curve, poor fit] | 29.1 µM [rising, single point] |
| Cc1c(NC(=S)NC(=O)c2cc3ccccc3o2)cccc1C(=O)O | 10.6 | 0.00517 µM [rising, full curve, poor fit] |  |
| CCOC(=O)C1=C(CSc2nc3c(cc2C#N)CCC3)OC(N)=C(C#N)C1c1ccccc1 (stereo not given) | -13 | 0.366 µM [falling, partial curve, poor fit] | 0.731 µM [falling, single point] |
| COc1ccc(-c2ncncc2-c2csc(C)n2)c(O)c1OC | 33.9 |  | 10.3 µM [rising, partial curve] |
| CCOCC(=O)Nc1ccc(OCc2ccccc2)cc1 | 24.3 |  |  |
| COc1ccccc1CNC(=O)C1CC(c2c(Cl)cccc2Cl)=NO1 (stereo not given) | 31.6 | 4.11 µM [rising, full curve, poor fit] | 6.51 µM [rising, partial curve] |

Reformatted: entries from further up.
Structure (SMILES),cell number change [%],AC50 [1],AC50 [2]
COc1cc(C(=O)NC(C)c2ccc3ccccc3c2)cc(Cl)c1O (stereo not given),13.5,"29.1 µM [rising, partial curve, poor fit]",
O=C(NC(=S)N1CCN(Cc2ccccc2)CC1)c1cccnc1,2,,

Continued:

| Structure (SMILES) | cell number change [%] | AC50 [1] | AC50 [2] |
| --- | --- | --- | --- |
| COc1ccc(N2CCN(C(=O)c3ccc4c(c3)[nH]c(=S)n3c5ccccc5nc43)CC2)cc1 | -18.7 | 0.0326 µM [rising, full curve, poor fit] | 6.51 µM [rising, single point] |
| COC(=O)c1cc(NC(=O)c2ccc(Cn3cc(Cl)cn3)o2)cc(C(=O)OC)c1 | -58.4 |  | 29.1 µM [falling, single point] |
| COc1ccccc1N1CCN(C(=O)c2cccc(S(=O)(=O)NCc3cccnc3)c2)CC1 | -10.6 | 29.1 µM [falling, single point] |  |
| CCN1CCN(C(=O)c2cc3cc4ccc(OC)cc4nc3s2)CC1 | 3.48 | 0.58 µM [falling, single point] |  |
| CCOC(=O)c1cc(-c2ccc3c(c2)OCO3)nc2onc(C)c12 |  | 0.517 µM [rising, full curve] | 1.46 µM [rising, partial curve] |
| Cc1ccc[n+](C(C)C(=O)Nc2ccc(C)c([N+](=O)[O-])c2)c1 (stereo not given) | 0.245 | 4.11 µM [falling, full curve, poor fit] |  |
| Cc1cccc(N(C(=O)c2csnn2)C(C(=O)NCc2ccccc2)c2cccs2)c1 (stereo not given) | 21.2 |  | 0.461 µM [rising, partial curve, poor fit] |
| CCOc1ccc(CCNC(=O)COC(=O)/C=C/c2cccc(OC)c2)cc1OCC | -74.5 | 0.461 µM [falling, full curve] | 10.3 µM [falling, partial curve] |
| COc1ccc(NC(=O)CN(c2ccc(C)cc2)S(C)(=O)=O)c(OC)c1 | -11.6 | 0.0326 µM [falling, full curve, poor fit] |  |
| CC1CCCCN1CC(=O)NC(=O)NCc1ccccc1 (stereo not given) | -58 | 29.1 µM [falling, single point] | 16.4 µM [falling, single point] |
| COCCNC(=S)N/N=C(\C)c1ccc(C)c([N+](=O)[O-])c1 | 11.4 | 29.1 µM [rising, single point] |  |
| Cc1cccc2sc(NC(=O)Cn3c(C)csc3=O)nc12 | 186 |  | 23.1 µM [rising, single point] |
| Cc1ccc2c(c1)[C@H]1[C@H](CO2)[C@H](c2ccccc2)[C@]2(C)C(=O)N(Cc3ccc(Cl)cc3)CC(=O)N12 | 2.46 | 0.0058 µM [rising, full curve, poor fit] |  |
| O=C(Cc1ccccc1)NCc1ccncc1 | 7.86 |  |  |
| COC(=O)C(Cc1ccccc1)NC(=O)c1cc(=O)[nH]c2ccccc12 (stereo not given) | -1.85 |  | 0.116 µM [rising, single point] |
| CCOC(=O)c1c[nH]c2nc(C)ccc2c1=O | -3.18 |  |  |
| O=C(COc1ccc(F)cc1Cl)Nc1ccc(S(=O)(=O)Nc2nccs2)cc1 | 48 | 6.51 µM [rising, single point] | 11.6 µM [rising, partial curve] |
| COCCN1Cc2c(sc(C)c2C)N(C(=O)c2ccccc2)C1 | 37.9 | 23.1 µM [rising, single point] | 16.4 µM [rising, partial curve] |
